Several values for one entry are separate records, joined by “and”; a condition that tells them apart may be missing. Identical values can stand only once. The source gives many values for each of these; only a part stands here.
System: SW48 xenografts
Experiment: SW48 cell-derived xenograft efficacy, HRO761 orally once daily
Type: in vivo, mouse
Method: All animal studies were conducted in accordance with ethics and procedures covered by permit BS-2275 and BS-1975 issued by the Kantonales Veterinäramt Basel-Stadt and in strict adherence to guidelines of the Eidgenössisches Tierschutzgesetz and the Eidgenössische Tierschutzverordnung, Switzerland. All animal studies were approved by the internal ethics committee. All animals had access to food and water ad libitum and were identified with transponders. They were housed in a specific-pathogen-free facility in IVC racks under a 12 h–12 h light–dark cycle. To establish cell-line-derived xenograft models, 6–7-week-old female athymic nude (Crl:NU(NCr)-Foxn1^nu) or SCID-BEIGE (CB17.Cg-PrkdcscidLystbg-J/Crl) mice from Charles River were engrafted subcutaneously with 5 million tumour cells in HBSS (H6648, Sigma-Aldrich). For SNU-407, Lovo, IM95, RL95.2, Ishikawa and IGROV-1, the cells were concentrated in 50% Matrigel (354234, Corning). Patient-derived xenografts were induced and expanded by transplantation as previously described. […] For the efficacy experiment, mice were randomized into groups (n = 5–6) for a mean tumour size of 100–150 mm^3. […] Blood samples were collected on day 7 and 91. […] Tumour responses are reported with the measures of tumour volumes from the treatment start. […] Animals were randomized (n = 3) and tumour samples were collected at 0, 1, 4, 8 and 24 h on the first day and then collected 4 h after the last treatment on day 3, 8, 10, 14 (including a 24 h timepoint), 17 and 21. Tumours were excised, weighed, either frozen in liquid nitrogen and cryogenic dry pulverized with the CryoPrep system (model CP-02, Covaris) or processed to FFPE after fixation. […] On day 12, blood samples were collected for PK analysis. On the last day (3 h after the last treatment), tumours were excised, weighed, frozen in liquid nitrogen and cryogenic dry pulverized for PD analysis.

`CCc1c(N2CCN(C(=O)c3ncnc(C)c3O)CC2)c(=O)n2nc(C3=CCOCC3)nc2n1CC(=O)Nc1ccc(C(F)(F)F)cc1Cl` [HRO761] was tested, and the “TVol, individual mouse” value (HRO761 20mg/kg, day 0 post 1st dose, 20 mg/kg) was 91.4 mm3 and 133.99 mm3 and 129.12 mm3 and 209.89 mm3 and 178.46 mm3, the “TVol, individual mouse” value (HRO761 20mg/kg, day 3 post 1st dose, 20 mg/kg) was 109.33 mm3 and 145.87 mm3 and 142.14 mm3 and 232.83 mm3 and 230.79 mm3 and the “TVol, individual mouse” value (HRO761 20mg/kg, day 7 post 1st dose, 20 mg/kg) was 169.31 mm3 and 145.26 mm3 and 155.37 mm3 and 364.75 mm3 and 235.61 mm3. For the same compound, the “TVol, individual mouse” value (HRO761 20mg/kg, day 10 post 1st dose, 20 mg/kg) was 161.6 mm3 and 137.16 mm3 and 145.85 mm3 and 274.94 mm3 and 275.52 mm3, the “TVol, individual mouse” value (HRO761 20mg/kg, day 31 post 1st dose, 20 mg/kg) was 271.88 mm3 and 215.2 mm3 and 305.14 mm3 and 328.19 mm3 and 465.72 mm3 and the “TVol, individual mouse” value (HRO761 20mg/kg, day 35 post 1st dose, 20 mg/kg) was 291.72 mm3 and 241.46 mm3 and 425.25 mm3 and 407.95 mm3 and 536.46 mm3. For the same compound, the “TVol, individual mouse” value (HRO761 20mg/kg, day 38 post 1st dose, 20 mg/kg) was 300.6 mm3 and 264.18 mm3 and 444.73 mm3 and 468.87 mm3 and 715.39 mm3, the “TVol, individual mouse” value (HRO761 20mg/kg, day 42 post 1st dose, 20 mg/kg) was 368.6 mm3 and 392.16 mm3 and 674.98 mm3 and 716.64 mm3 and 982.57 mm3 and the “TVol, individual mouse” value (HRO761 20mg/kg, day 45 post 1st dose, 20 mg/kg) was 371.24 mm3 and 385.6 mm3 and 783.12 mm3 and 843.85 mm3 and 911.15 mm3. For the same compound, the “TVol, individual mouse” value (HRO761 40mg/kg, day 0 post 1st dose, 40 mg/kg) was 200.29 mm3 and 110.04 mm3 and 161.38 mm3 and 114.46 mm3 and 156.76 mm3, the “TVol, individual mouse” value (HRO761 40mg/kg, day 3 post 1st dose, 40 mg/kg) was 220.72 mm3 and 133.24 mm3 and 168.6 mm3 and 128.25 mm3 and 160.45 mm3 and the “TVol, individual mouse” value (HRO761 40mg/kg, day 7 post 1st dose, 40 mg/kg) was 301.07 mm3 and 120.77 mm3 and 173.59 mm3 and 120.92 mm3 and 189.14 mm3. The “TVol, individual mouse” value (HRO761 40mg/kg, day 10 post 1st dose, 40 mg/kg) was 217.52 mm3 and 71.6 mm3 and 151.81 mm3 and 127.22 mm3 and 165.14 mm3, the “TVol, individual mouse” value (HRO761 40mg/kg, day 31 post 1st dose, 40 mg/kg) was 36.14 mm3 and 32.93 mm3 and 32.1 mm3 and 36.62 mm3 and 48.39 mm3 and the “TVol, individual mouse” value (HRO761 40mg/kg, day 35 post 1st dose, 40 mg/kg) was 18.7 mm3 and 35.1 mm3 and 35.82 mm3 and 29.2 mm3 and 45.59 mm3. The “TVol, individual mouse” value (HRO761 40mg/kg, day 38 post 1st dose, 40 mg/kg) was 18.57 mm3 and 44.23 mm3 and 32.27 mm3 and 29.68 mm3 and 41.76 mm3, the “TVol, individual mouse” value (HRO761 40mg/kg, day 42 post 1st dose, 40 mg/kg) was 17.27 mm3 and 43.27 mm3 and 33.51 mm3 and 32.53 mm3 and 57.9 mm3 and the “TVol, individual mouse” value (HRO761 40mg/kg, day 45 post 1st dose, 40 mg/kg) was 17.95 mm3 and 55.4 mm3 and 29.6 mm3 and 29.3 mm3 and 41.69 mm3. For the same compound, the “TVol, individual mouse” value (HRO761 40mg/kg, day 49 post 1st dose, 40 mg/kg) was 14.31 mm3 and 73.48 mm3 and 28.77 mm3 and 23.48 mm3 and 46.33 mm3, the “TVol, individual mouse” value (HRO761 40mg/kg, day 52 post 1st dose, 40 mg/kg) was 13.49 mm3 and 67.12 mm3 and 35.7 mm3 and 19.69 mm3 and 42.88 mm3 and the “TVol, individual mouse” value (HRO761 40mg/kg, day 56 post 1st dose, 40 mg/kg) was 4.93 mm3 and 64.82 mm3 and 41.63 mm3 and 35.01 mm3 and 85.69 mm3. For the same compound, the “TVol, individual mouse” value (HRO761 40mg/kg, day 59 post 1st dose, 40 mg/kg) was 15.84 mm3 and 71.64 mm3 and 53.36 mm3 and 40.6 mm3 and 98.1 mm3, the “TVol, individual mouse” value (HRO761 40mg/kg, day 63 post 1st dose, 40 mg/kg) was 8.78 mm3 and 134.59 mm3 and 55.54 mm3 and 38.79 mm3 and 149.74 mm3 and the “TVol, individual mouse” value (HRO761 40mg/kg, day 66 post 1st dose, 40 mg/kg) was 7.59 mm3 and 146.67 mm3 and 66.42 mm3 and 41.7 mm3 and 161.69 mm3. For the same compound, the “TVol, individual mouse” value (HRO761 40mg/kg, day 70 post 1st dose, 40 mg/kg) was 7.7 mm3 and 179.07 mm3 and 96.05 mm3 and 56.04 mm3 and 186.46 mm3, the “TVol, individual mouse” value (HRO761 40mg/kg, day 73 post 1st dose, 40 mg/kg) was 11.2 mm3 and 180.6 mm3 and 110.85 mm3 and 54.64 mm3 and 234.87 mm3 and the “TVol, individual mouse” value (HRO761 40mg/kg, day 76 post 1st dose, 40 mg/kg) was 9.42 mm3 and 220.94 mm3 and 148.46 mm3 and 51.2 mm3 and 265.63 mm3. The “TVol, individual mouse” value (HRO761 40mg/kg, day 79 post 1st dose, 40 mg/kg) was 9.85 mm3 and 268.86 mm3 and 198.08 mm3 and 73.28 mm3 and 373.46 mm3, the “TVol, individual mouse” value (HRO761 40mg/kg, day 83 post 1st dose, 40 mg/kg) was 11.67 mm3 and 324.63 mm3 and 209.08 mm3 and 84.28 mm3 and 447.19 mm3 and the “TVol, individual mouse” value (HRO761 40mg/kg, day 86 post 1st dose, 40 mg/kg) was 12.85 mm3 and 494.2 mm3 and 228.92 mm3 and 87.95 mm3 and 483.08 mm3. The “TVol, individual mouse” value (HRO761 40mg/kg, day 90 post 1st dose, 40 mg/kg) was 15.57 mm3 and 596.3 mm3 and 289.97 mm3 and 105.44 mm3 and 637.89 mm3, the “TVol, individual mouse” value (HRO761 40mg/kg, day 92 post 1st dose, 40 mg/kg) was 13.53 mm3 and 633.18 mm3 and 267.13 mm3 and 107.38 mm3 and 649.51 mm3 and the “TVol, individual mouse” value (HRO761 60mg/kg, day 0 post 1st dose, 60 mg/kg) was 142.46 mm3 and 137.81 mm3 and 95.26 mm3 and 221.73 mm3 and 145.7 mm3. For the same compound, the “TVol, individual mouse” value (HRO761 60mg/kg, day 3 post 1st dose, 60 mg/kg) was 194.8 mm3 and 181.61 mm3 and 92.95 mm3 and 290.26 mm3 and 162.3 mm3, the “TVol, individual mouse” value (HRO761 60mg/kg, day 7 post 1st dose, 60 mg/kg) was 182.62 mm3 and 152.01 mm3 and 74.39 mm3 and 288.37 mm3 and 144.35 mm3 and the “TVol, individual mouse” value (HRO761 60mg/kg, day 10 post 1st dose, 60 mg/kg) was 137 mm3 and 131.04 mm3 and 71.66 mm3 and 201.61 mm3 and 154.78 mm3. For the same compound, the “TVol, individual mouse” value (HRO761 60mg/kg, day 31 post 1st dose, 60 mg/kg) was 48.86 mm3 and 40.06 mm3 and 18.15 mm3 and 42.15 mm3 and 40.04 mm3, the “TVol, individual mouse” value (HRO761 60mg/kg, day 35 post 1st dose, 60 mg/kg) was 38.59 mm3 and 37.63 mm3 and 13.44 mm3 and 52.03 mm3 and 36.47 mm3 and the “TVol, individual mouse” value (HRO761 60mg/kg, day 38 post 1st dose, 60 mg/kg) was 34.79 mm3 and 32.21 mm3 and 13.1 mm3 and 42.19 mm3 and 38.3 mm3. The “TVol, individual mouse” value (HRO761 60mg/kg, day 42 post 1st dose, 60 mg/kg) was 38.34 mm3 and 25.51 mm3 and 14.73 mm3 and 20.65 mm3 and 34.22 mm3 and the “TVol, individual mouse” value (HRO761 60mg/kg, day 45 post 1st dose, 60 mg/kg) was 47.39 mm3 and 21 mm3 and 15.41 mm3 and 28.75 mm3 and 29.52 mm3.

Reference: publication PMC11078746 (Nature, 2024)
